Source: PMC10716131
Results are given in words; binding and its absence hold for the method and conditions named.

By UniProt entry, the sequences of proteins in these tests, tags left out. Where a name states a change or a piece, a line headed by the entry shows the natural chain unless it says otherwise.
UniProt Q96SW2: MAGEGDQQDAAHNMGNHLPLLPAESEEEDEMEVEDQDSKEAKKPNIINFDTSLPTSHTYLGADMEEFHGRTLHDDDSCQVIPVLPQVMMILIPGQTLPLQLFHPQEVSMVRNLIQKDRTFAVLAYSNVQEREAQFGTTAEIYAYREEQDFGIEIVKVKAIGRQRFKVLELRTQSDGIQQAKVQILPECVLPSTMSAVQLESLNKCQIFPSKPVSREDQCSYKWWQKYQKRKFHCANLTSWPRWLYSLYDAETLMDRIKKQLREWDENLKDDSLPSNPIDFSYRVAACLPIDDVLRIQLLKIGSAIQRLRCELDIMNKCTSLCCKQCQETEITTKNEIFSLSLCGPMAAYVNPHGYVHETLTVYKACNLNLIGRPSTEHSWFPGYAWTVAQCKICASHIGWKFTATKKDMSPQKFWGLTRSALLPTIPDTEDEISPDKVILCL
UniProt Q16531: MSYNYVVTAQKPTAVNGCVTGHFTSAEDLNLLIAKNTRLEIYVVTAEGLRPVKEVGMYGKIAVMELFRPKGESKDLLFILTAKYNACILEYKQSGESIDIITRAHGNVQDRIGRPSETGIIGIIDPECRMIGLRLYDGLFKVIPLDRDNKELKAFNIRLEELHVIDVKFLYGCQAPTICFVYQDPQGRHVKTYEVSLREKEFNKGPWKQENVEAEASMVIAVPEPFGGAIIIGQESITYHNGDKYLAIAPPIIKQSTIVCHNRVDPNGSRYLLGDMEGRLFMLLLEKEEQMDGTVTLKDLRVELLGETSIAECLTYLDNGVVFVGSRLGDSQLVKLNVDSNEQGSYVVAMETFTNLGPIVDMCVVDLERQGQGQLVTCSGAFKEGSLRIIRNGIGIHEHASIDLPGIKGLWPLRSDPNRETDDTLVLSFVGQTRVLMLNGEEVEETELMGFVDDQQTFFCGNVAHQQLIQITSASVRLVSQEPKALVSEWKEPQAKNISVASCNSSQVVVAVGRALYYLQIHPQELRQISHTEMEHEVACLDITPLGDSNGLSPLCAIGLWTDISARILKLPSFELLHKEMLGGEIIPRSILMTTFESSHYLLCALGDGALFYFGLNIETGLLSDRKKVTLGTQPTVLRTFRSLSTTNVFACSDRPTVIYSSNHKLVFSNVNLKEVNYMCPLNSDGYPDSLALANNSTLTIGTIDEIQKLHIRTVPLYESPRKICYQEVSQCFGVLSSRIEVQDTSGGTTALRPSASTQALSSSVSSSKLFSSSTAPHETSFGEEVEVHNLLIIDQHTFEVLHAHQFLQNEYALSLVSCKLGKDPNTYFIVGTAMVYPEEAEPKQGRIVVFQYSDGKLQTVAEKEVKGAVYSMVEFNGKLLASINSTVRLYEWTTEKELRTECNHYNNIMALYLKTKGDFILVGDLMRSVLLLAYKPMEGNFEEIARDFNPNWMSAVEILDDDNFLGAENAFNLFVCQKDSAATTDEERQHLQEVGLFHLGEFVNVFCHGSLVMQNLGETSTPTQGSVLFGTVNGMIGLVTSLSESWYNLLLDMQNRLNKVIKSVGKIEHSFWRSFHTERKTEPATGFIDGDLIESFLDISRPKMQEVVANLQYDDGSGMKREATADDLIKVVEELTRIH

Experiments:
[1] = target: T1, DDB1:CRBN complex, full-length human CRBN (residues 1–442) with N-terminal biotinylated Avi-tag, co-expressed with human DDB1 (residues 1–1140) (human) (UniProt Q96SW2+Q16531); test: SPR; DDB1:N-avi-biotin-CRBN immobilised on a streptavidin sensor (~5000–7000 RU), Biacore 8k, ABA method; SALL4 zinc fingers in 2X dilution series with 5 μM CC-220 throughout; PBS pH 7.2, 5% glycerol, total NaCl ~300 mM, 0.01% P20, 1 mM TCEP, 0.05% DMSO; 15 °C; 30 µL/minute; 1:1 kinetic modelling; both purified
[2] = target: T1, DDB1:CRBN complex, full-length human CRBN (residues 1–442) with N-terminal biotinylated Avi-tag, co-expressed with human DDB1 (residues 1–1140) (human); test: SPR; DDB1:N-avi-biotin-CRBN immobilised on a streptavidin sensor (~5000–7000 RU), Biacore 8k, ABA method; SALL4 zinc fingers in 2X dilution series with 5 μM pomalidomide throughout; PBS pH 7.2, 5% glycerol, total NaCl ~300 mM, 0.01% P20, 1 mM TCEP, 0.05% DMSO; 15 °C; 30 µL/minute; 1:1 kinetic modelling; both purified

## DVKPKDEAALYKHKCKYCSKVFGTDSSLQIHLRSHTGERP (domain or fragment, UniProt Q9UJQ4 370-409) [Human SALL4 ZF1(370–409)]
[1]
  binding: no binding (tested: 25 μM)
[2]
  binding: no binding (tested: 25 μM)
